Measured values taken from the supplement of paper PMC10849652.
The list shows a part of the results.

The chains behind the UniProt entries cited, without tags or fusion partners. Where a name states a change or a piece, a line headed by the entry shows the natural chain unless it says otherwise.
UniProt Q9UL25: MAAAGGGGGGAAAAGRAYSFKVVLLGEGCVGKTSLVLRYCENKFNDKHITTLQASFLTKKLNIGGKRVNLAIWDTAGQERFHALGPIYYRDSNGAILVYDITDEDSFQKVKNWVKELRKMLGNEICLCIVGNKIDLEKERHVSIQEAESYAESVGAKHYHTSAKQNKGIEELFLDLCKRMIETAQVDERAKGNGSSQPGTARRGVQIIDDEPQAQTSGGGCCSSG
UniProt Q6GYQ0: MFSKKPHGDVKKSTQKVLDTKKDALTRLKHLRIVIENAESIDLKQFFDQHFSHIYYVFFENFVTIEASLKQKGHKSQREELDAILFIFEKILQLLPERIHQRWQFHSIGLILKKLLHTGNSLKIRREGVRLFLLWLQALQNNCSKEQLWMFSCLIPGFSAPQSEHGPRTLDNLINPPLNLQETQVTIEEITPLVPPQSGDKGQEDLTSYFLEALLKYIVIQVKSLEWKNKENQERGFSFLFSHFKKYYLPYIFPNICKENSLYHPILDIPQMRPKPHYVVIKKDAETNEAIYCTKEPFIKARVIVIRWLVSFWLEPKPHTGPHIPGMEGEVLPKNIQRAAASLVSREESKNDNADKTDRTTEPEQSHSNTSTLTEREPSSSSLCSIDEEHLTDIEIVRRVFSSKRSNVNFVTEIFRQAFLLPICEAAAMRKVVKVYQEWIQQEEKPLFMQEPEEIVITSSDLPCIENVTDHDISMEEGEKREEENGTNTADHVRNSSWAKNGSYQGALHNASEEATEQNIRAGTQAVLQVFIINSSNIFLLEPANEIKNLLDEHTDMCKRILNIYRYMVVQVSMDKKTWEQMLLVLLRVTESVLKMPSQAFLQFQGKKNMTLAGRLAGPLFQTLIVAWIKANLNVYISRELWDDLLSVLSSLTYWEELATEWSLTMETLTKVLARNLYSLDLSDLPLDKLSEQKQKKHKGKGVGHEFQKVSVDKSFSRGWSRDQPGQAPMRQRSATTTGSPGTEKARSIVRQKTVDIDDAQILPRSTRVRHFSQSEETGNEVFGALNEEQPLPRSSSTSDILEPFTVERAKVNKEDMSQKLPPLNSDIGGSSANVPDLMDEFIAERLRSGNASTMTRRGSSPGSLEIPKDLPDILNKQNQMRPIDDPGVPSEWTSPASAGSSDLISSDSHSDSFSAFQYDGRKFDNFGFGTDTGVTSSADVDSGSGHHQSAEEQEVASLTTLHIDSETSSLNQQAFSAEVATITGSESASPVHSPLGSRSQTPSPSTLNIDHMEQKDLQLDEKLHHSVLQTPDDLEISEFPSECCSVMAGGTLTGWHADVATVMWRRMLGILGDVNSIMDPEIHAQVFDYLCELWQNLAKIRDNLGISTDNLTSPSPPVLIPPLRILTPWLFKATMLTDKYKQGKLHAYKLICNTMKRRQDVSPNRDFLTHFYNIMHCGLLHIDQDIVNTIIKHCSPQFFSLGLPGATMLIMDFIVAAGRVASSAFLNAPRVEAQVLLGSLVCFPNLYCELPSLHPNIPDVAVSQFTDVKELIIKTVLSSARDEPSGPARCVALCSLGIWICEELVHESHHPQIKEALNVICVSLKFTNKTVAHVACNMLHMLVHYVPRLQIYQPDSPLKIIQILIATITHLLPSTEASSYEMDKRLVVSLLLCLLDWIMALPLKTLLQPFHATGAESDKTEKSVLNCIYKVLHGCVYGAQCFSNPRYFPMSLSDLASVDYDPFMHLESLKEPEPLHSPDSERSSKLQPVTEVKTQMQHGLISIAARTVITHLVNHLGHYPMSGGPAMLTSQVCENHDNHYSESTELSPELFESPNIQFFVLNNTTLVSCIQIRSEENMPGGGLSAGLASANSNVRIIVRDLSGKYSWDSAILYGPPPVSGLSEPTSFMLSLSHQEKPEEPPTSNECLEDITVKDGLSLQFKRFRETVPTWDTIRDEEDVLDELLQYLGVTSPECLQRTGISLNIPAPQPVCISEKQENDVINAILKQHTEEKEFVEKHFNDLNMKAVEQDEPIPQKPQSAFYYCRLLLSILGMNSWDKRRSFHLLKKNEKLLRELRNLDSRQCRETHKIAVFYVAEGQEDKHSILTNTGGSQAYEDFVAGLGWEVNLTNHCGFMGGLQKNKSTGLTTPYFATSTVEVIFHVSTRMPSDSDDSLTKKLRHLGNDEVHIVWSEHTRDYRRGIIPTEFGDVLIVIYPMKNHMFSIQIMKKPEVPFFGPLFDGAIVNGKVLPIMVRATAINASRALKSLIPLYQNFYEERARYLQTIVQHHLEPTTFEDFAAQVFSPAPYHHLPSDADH
UniProt Q15907: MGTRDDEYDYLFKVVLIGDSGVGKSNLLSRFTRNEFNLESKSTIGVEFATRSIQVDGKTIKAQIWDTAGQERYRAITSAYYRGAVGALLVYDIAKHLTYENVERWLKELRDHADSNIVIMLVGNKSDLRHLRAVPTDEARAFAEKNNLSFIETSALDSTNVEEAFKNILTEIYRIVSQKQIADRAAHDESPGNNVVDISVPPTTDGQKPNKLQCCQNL
UniProt P47736: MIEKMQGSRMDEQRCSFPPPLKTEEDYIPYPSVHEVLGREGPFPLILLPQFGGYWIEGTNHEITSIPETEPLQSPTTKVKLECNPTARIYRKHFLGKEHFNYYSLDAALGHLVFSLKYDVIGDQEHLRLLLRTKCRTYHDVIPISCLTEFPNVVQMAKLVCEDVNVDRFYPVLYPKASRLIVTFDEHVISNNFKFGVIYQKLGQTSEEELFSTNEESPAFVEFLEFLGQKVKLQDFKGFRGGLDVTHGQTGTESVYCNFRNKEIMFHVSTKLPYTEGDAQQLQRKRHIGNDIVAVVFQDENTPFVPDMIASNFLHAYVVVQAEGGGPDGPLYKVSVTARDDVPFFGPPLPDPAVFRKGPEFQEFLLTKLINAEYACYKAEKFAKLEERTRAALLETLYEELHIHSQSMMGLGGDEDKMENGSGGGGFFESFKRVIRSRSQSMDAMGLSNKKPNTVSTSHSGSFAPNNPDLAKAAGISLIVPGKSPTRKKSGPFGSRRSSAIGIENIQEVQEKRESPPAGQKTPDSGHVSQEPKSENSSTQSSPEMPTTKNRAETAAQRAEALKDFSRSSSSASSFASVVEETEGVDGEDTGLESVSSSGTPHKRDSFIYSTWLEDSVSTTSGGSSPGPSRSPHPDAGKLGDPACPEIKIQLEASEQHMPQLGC
UniProt P78406: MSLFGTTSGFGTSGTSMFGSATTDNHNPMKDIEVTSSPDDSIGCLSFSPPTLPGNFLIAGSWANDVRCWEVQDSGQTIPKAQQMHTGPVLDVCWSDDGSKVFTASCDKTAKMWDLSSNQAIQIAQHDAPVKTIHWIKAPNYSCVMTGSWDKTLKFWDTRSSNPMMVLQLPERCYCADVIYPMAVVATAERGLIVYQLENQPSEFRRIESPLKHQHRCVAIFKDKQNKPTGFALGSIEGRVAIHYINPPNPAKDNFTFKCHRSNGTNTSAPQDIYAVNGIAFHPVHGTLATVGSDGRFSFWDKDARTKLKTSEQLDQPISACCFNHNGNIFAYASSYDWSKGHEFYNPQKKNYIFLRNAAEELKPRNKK
UniProt O15315: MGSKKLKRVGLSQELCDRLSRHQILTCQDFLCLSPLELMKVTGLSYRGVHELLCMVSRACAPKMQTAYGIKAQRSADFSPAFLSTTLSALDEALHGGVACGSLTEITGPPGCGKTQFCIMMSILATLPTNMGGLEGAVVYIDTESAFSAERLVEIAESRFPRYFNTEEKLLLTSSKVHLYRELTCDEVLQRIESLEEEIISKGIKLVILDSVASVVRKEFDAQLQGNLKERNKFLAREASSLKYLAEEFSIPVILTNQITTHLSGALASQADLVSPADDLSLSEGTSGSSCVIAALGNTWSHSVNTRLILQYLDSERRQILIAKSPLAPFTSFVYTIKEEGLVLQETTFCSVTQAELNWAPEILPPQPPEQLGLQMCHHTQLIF
UniProt Q16576, whole entry, looked up: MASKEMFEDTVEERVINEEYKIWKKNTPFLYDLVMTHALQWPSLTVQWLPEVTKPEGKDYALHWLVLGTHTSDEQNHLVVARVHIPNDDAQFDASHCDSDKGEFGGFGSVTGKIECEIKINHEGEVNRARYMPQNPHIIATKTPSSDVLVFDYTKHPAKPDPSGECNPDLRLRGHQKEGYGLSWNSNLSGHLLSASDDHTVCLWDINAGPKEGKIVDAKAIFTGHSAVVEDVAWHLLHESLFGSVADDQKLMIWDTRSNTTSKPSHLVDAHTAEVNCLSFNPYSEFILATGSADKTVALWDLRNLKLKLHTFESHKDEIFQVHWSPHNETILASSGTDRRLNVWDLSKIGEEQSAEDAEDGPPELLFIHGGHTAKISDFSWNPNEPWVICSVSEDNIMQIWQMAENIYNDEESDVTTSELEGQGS
UniProt Q9P0K7: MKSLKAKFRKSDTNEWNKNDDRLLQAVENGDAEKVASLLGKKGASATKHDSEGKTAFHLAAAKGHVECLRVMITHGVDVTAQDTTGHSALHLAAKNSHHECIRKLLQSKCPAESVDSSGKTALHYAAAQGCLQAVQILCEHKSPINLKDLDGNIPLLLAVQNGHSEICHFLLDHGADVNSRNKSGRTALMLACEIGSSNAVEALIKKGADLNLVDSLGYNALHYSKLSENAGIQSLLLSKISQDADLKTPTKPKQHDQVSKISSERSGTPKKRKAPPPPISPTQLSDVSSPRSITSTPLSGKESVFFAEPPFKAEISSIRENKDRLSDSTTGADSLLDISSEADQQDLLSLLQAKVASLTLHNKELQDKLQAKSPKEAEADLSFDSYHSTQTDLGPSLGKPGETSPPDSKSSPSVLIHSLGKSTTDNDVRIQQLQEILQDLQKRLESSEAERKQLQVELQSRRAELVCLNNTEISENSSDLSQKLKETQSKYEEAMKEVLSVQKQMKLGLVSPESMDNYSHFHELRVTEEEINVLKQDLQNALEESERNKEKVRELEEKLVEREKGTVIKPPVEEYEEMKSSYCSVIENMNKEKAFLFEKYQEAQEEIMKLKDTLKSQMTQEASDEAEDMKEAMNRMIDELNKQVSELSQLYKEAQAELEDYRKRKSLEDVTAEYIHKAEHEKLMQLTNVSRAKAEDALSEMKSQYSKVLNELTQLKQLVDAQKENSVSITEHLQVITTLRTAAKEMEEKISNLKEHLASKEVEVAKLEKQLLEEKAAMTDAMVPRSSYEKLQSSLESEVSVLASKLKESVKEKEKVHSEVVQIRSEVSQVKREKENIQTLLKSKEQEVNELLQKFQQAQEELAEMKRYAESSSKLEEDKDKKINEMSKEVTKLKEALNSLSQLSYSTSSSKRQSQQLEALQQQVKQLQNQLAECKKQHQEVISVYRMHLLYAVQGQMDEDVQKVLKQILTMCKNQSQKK

What was measured:
Assay in all cases: log2 fold change, soluble protein after heating vs DMSO (PISA); higher = thermal stabilisation; K562 cells, 10 uM, 30 min; active = over 0.2 and 3.5 SD of the protein, either way, in both replicates (recomputed)
[1] = compound: NC(=O)Nc1cc(-c2cccc(F)c2)sc1C(=O)N[C@H]1CCCNC1
Method in brief: (§1)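 K562 cells at 2×10^6 cells/mL were exposed to 10 μM compound for 30 min, then aliquots were heated for 3 min across 48°C-58°C, pooled, and extracted in PBS containing 0.5% NP-40 at 4°C. The supernatant after 21,000xg for 90 min was taken as soluble protein and measured by TMTpro 16plex LC-MS/MS with channel sums equalised. Thermal stability is reported relative to control samples, with values from duplicates. Fold changes are given on a log2 scale.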

[2] = compound: NC(=O)c1cnc(N[C@@H]2CCCC[C@@H]2N)nc1Nc1cccc(-n2nccn2)c1
Method in brief: as §1

[3] = compound: NC1(c2ccc(-c3nc4ccn5c(=O)[nH]nc5c4cc3-c3ccccc3)cc2)CCC1
Method in brief: as §1

[4] = compound: NCC(=O)Nc1ccc(-n2nc(C(F)(F)F)cc2-c2ccc3c(ccc4ccccc43)c2)cc1
Method in brief: as §1

[5] = compound: Nc1ccccc1NC(=O)c1ccc(CNC(=O)OCc2cccnc2)cc1 [entinostat]
Method in brief: as §1

[6] = compound: O=C(CCCCCCC(=O)Nc1ccccc1)NO [vorinostat]
Method in brief: as §1

[7] = compound: O=C(CCCCCCNC(=O)c1cnc(N(c2ccccc2)c2ccccc2Cl)nc1)NO [citarinostat]
Method in brief: as §1

[8] = compound: O=C(O)c1ccc2c(c1)nc(Nc1cccc(Cl)c1)c1ccncc12 [silmitasertib]
Method in brief: as §1

[9] = compound: O=C1NC(=O)C(c2cnc3ccccn23)=C1c1cn2c3c(cc(F)cc13)CN(C(=O)N1CCCCC1)CC2
Method in brief: as §1

[10] = compound: c1cc(OCCN2CCCCC2)cc(-c2n[nH]c3ccc(-c4nnc[nH]4)cc23)c1
Method in brief: as §1

[11] = compound: c1cn2cc(-c3ccc4cn[nH]c4c3)nc(Nc3ccc(N4CCOCC4)cc3)c2n1 [entospletinib]
Method in brief: as §1

Measured: log2 fold change

RAB21 (UniProt Q9UL25)
inactive: [1] -0.008 | [2] -0.042 | [3] -0.051 | [4] -0.081 | [5] -0.03 | [6] 0.089 | [7] 0.015 | [8] 0 | [9] -0.024 | [10] -0.064 | [11] 0.01

RALGAPA1 isoform 6 (UniProt Q6GYQ0)
inactive: [1] -0.1 | [2] -0.102 | [3] -0.117 | [4] -0.213 | [5] 0.089 | [7] -0.05 | [8] 0.042 | [9] -0.076 | [10] -0.086 | [11] 0.238

RAB11B (UniProt Q15907)
inactive: [1] -0.013 | [2] 0.02 | [3] -0.017 | [4] 0.013 | [5] -0.024 | [6] -0.061 | [7] 0.024 | [8] -0.001 | [9] -0.029 | [10] -0.017 | [11] -0.003

RAP1GAP isoform 4 (UniProt P47736)
inactive: [1] 0.038 | [2] -0.137 | [3] -0.506 | [4] -0.063 | [5] 0.073 | [6] 0.118 | [8] -0.207 | [9] 0.019

RAE1 (UniProt P78406)
inactive: [1] -0.049 | [2] -0.004 | [3] -0.016 | [4] -0.029 | [5] -0.036 | [6] 0.025 | [7] -0.049 | [8] 0.084 | [9] 0.034 | [10] 0.156 | [11] 0.006

RAD51B (UniProt O15315)
inactive: [1] -0.009 | [2] -0.163 | [3] -0.241 | [5] -0.078 | [6] 0.002 | [7] -0.084 | [8] -0.01 | [9] 0.033 | [10] 0.042 | [11] 0.002

RBBP7 (UniProt Q16576)
inactive: [1] -0.098 | [2] -0.094 | [3] 0.019 | [5] 0.034 | [7] -0.067 | [8] -0.006 | [9] 0.011 | [10] 0.007 | [11] 0.025

RAI14 isoform 2 (UniProt Q9P0K7)
inactive: [1] -0.112 | [2] -0.197 | [3] -0.24 | [4] 0.037 | [5] 0.166 | [6] 0.08 | [8] 0.175 | [9] 0.064
